PubChem BioAssay AID1259299 – Sanger Institute, 2017

- Assay: 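Essential genes and drug-synergistic partners among kinases and colorectal mutation genes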 (primary screen)
- Cell system: human CAR1 colorectal cancer cells
- Reagents: siRNA pool against human genes
- Treatment: anchor drug BYL719 1 µM, cetuximab 5 µg/ml or trametinib 10 nM, or DMSO vehicle alone; exposure length not given
- Read-out: 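Cell viability as fraction of non-targeting siRNA wells, mean of replicates, with robust z-score and a synergy score for each of three drugs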
- Direction: viability robust z-score, knock-down alone and viability, knock-down alone (DMSO): higher = more viable cells
- Units: viability, knock-down alone (DMSO) in fraction of control
- Active means: 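Essential when viability robust z-score with knock-down alone (DMSO) is below -3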
- Meaning of the calls: active = essential (knock-down alone); inactive = no change
Here is an unselected part of 794 reagents tested. Of all reagents, 9 (1.1%) were called active. 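Calls rest on knock-down alone; synergy scores play no part in calls, and no gene passed the synergy cut.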 Viability is capped at 1. Not all columns of the deposit are shown. The record does not give: the amount of reagent, the time to read-out.

{"Target gene": "NUP107 (nucleoporin 107)", "viability robust z-score, knock-down alone": 0.725, "viability, knock-down alone (DMSO)": 0.994, "outcome": "inactive"}
{"Target gene": "PANK4 (pantothenate kinase 4 (inactive))", "viability robust z-score, knock-down alone": -2.19, "viability, knock-down alone (DMSO)": 0.725, "outcome": "inactive"}
{"Target gene": "RAD21 (RAD21 cohesin complex component)", "viability robust z-score, knock-down alone": 0.789, "viability, knock-down alone (DMSO)": 1, "outcome": "inactive"}
{"Target gene": "HIPK1 (homeodomain interacting protein kinase 1)", "viability robust z-score, knock-down alone": -0.839, "viability, knock-down alone (DMSO)": 0.85, "outcome": "inactive"}
{"Target gene": "FN1 (fibronectin 1)", "viability robust z-score, knock-down alone": 0.0526, "viability, knock-down alone (DMSO)": 0.932, "outcome": "inactive"}
{"Target gene": "CNOT1 (CCR4-NOT transcription complex subunit 1)", "viability robust z-score, knock-down alone": -3.61, "viability, knock-down alone (DMSO)": 0.593, "outcome": "active"}
{"Target gene": "NRK (Nik related kinase)", "viability robust z-score, knock-down alone": -0.237, "viability, knock-down alone (DMSO)": 0.905, "outcome": "inactive"}
{"Target gene": "CHEK2 (checkpoint kinase 2)", "viability robust z-score, knock-down alone": -0.0484, "viability, knock-down alone (DMSO)": 0.923, "outcome": "inactive"}
{"Target gene": "PCK2 (phosphoenolpyruvate carboxykinase 2, mitochondrial)", "viability robust z-score, knock-down alone": -0.433, "viability, knock-down alone (DMSO)": 0.887, "outcome": "inactive"}
{"Target gene": "MASTL (microtubule associated serine/threonine kinase like)", "viability robust z-score, knock-down alone": 0.052, "viability, knock-down alone (DMSO)": 0.932, "outcome": "inactive"}
{"Target gene": "PDGFRB (platelet derived growth factor receptor beta)", "viability robust z-score, knock-down alone": -1.68, "viability, knock-down alone (DMSO)": 0.772, "outcome": "inactive"}
{"Target gene": "PHKA2 (phosphorylase kinase regulatory subunit alpha 2)", "viability robust z-score, knock-down alone": -0.69, "viability, knock-down alone (DMSO)": 0.863, "outcome": "inactive"}
{"Target gene": "ROR2 (ROR family WNT receptor 2)", "viability robust z-score, knock-down alone": 0.229, "viability, knock-down alone (DMSO)": 0.948, "outcome": "inactive"}
{"Target gene": "KSR2 (kinase suppressor of ras 2)", "viability robust z-score, knock-down alone": 0.789, "viability, knock-down alone (DMSO)": 1, "outcome": "inactive"}
{"Target gene": "VRK1 (VRK serine/threonine kinase 1)", "viability robust z-score, knock-down alone": 0.789, "viability, knock-down alone (DMSO)": 1, "outcome": "inactive"}
{"Target gene": "ETNK1 (ethanolamine kinase 1)", "viability robust z-score, knock-down alone": -2.02, "viability, knock-down alone (DMSO)": 0.74, "outcome": "inactive"}

Taken from above:
Value for NUP107 (nucleoporin 107) in “viability, knock-down alone (DMSO)”: 0.994
MASTL (microtubule associated serine/threonine kinase like), viability robust z-score, knock-down alone → 0.052
For “outcome”, PHKA2 (phosphorylase kinase regulatory subunit alpha 2) has inactive
For “viability, knock-down alone (DMSO)”, PCK2 (phosphoenolpyruvate carboxykinase 2, mitochondrial) shows 0.887
Result of ROR2 (ROR family WNT receptor 2) in “outcome”: inactive

Further entries follow.
{"Target gene": "KMT2B (lysine methyltransferase 2B)", "viability robust z-score, knock-down alone": 0.168, "viability, knock-down alone (DMSO)": 0.943, "outcome": "inactive"}
{"Target gene": "EPHA2 (EPH receptor A2)", "viability robust z-score, knock-down alone": 0.789, "viability, knock-down alone (DMSO)": 1, "outcome": "inactive"}
{"Target gene": "CAMK1 (calcium/calmodulin dependent protein kinase I)", "viability robust z-score, knock-down alone": 0.0271, "viability, knock-down alone (DMSO)": 0.93, "outcome": "inactive"}
{"Target gene": "NUP62 (nucleoporin 62)", "viability robust z-score, knock-down alone": -0.066, "viability, knock-down alone (DMSO)": 0.921, "outcome": "inactive"}
{"Target gene": "AK5 (adenylate kinase 5)", "viability robust z-score, knock-down alone": -1.17, "viability, knock-down alone (DMSO)": 0.819, "outcome": "inactive"}
{"Target gene": "FN3KRP (fructosamine 3 kinase related protein)", "viability robust z-score, knock-down alone": -4.35, "viability, knock-down alone (DMSO)": 0.526, "outcome": "active"}
{"Target gene": "CKB (creatine kinase B)", "viability robust z-score, knock-down alone": 0.149, "viability, knock-down alone (DMSO)": 0.941, "outcome": "inactive"}
{"Target gene": "TAOK3 (TAO kinase 3)", "viability robust z-score, knock-down alone": 0.789, "viability, knock-down alone (DMSO)": 1, "outcome": "inactive"}
{"Target gene": "CAMK2N1 (calcium/calmodulin dependent protein kinase II inhibitor 1)", "viability robust z-score, knock-down alone": -4.13, "viability, knock-down alone (DMSO)": 0.546, "outcome": "active"}
{"Target gene": "PASK (PAS domain containing serine/threonine kinase)", "viability robust z-score, knock-down alone": -1.22, "viability, knock-down alone (DMSO)": 0.814, "outcome": "inactive"}
{"Target gene": "ERN2 (endoplasmic reticulum to nucleus signaling 2)", "viability robust z-score, knock-down alone": 0.789, "viability, knock-down alone (DMSO)": 1, "outcome": "inactive"}
{"Target gene": "CAMK2A (calcium/calmodulin dependent protein kinase II alpha)", "viability robust z-score, knock-down alone": 0.789, "viability, knock-down alone (DMSO)": 1, "outcome": "inactive"}
{"Target gene": "DGKB (diacylglycerol kinase beta)", "viability robust z-score, knock-down alone": -1.82, "viability, knock-down alone (DMSO)": 0.759, "outcome": "inactive"}
{"Target gene": "RAF1 (Raf-1 proto-oncogene, serine/threonine kinase)", "viability robust z-score, knock-down alone": 0.789, "viability, knock-down alone (DMSO)": 1, "outcome": "inactive"}
{"Target gene": "PRKAG3 (protein kinase AMP-activated non-catalytic subunit gamma 3)", "viability robust z-score, knock-down alone": -2.37, "viability, knock-down alone (DMSO)": 0.709, "outcome": "inactive"}
{"Target gene": "CMPK1 (cytidine/uridine monophosphate kinase 1)", "viability robust z-score, knock-down alone": 0.789, "viability, knock-down alone (DMSO)": 1, "outcome": "inactive"}
{"Target gene": "VRK2 (VRK serine/threonine kinase 2)", "viability robust z-score, knock-down alone": -1.88, "viability, knock-down alone (DMSO)": 0.754, "outcome": "inactive"}
{"Target gene": "BMPR2 (bone morphogenetic protein receptor type 2)", "viability robust z-score, knock-down alone": 0.357, "viability, knock-down alone (DMSO)": 0.96, "outcome": "inactive"}
{"Target gene": "MED12 (mediator complex subunit 12)", "viability robust z-score, knock-down alone": 0.743, "viability, knock-down alone (DMSO)": 0.996, "outcome": "inactive"}
{"Target gene": "CALM1 (calmodulin 1)", "viability robust z-score, knock-down alone": 0.789, "viability, knock-down alone (DMSO)": 1, "outcome": "inactive"}
